The target in experiment [1] is Snail1 (human (endogenous in U251)) (UniProt O95863). The experiment in a line: co-IP; mutual co-immunoprecipitation at endogenous levels in U251 cells, followed by immunoblotting. (In general: A western blot detects proteins with antibodies after separation by electrophoresis.)
In a further experiment the target is T1, HA-HES1 (UniProt Q14469).
T1 sequence: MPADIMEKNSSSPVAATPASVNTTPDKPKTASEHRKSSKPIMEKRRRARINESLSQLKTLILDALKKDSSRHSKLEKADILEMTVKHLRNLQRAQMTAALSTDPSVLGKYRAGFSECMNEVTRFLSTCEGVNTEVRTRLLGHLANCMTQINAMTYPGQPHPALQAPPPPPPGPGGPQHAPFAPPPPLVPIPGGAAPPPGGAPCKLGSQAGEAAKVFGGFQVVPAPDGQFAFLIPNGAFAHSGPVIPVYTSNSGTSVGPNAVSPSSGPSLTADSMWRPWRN
Briefly: co-IP; mutual co-immunoprecipitation at exogenous levels, myc- and HA-tagged proteins co-transfected in U251 cells (2 μg of each plasmid), followed by immunoblotting.

By UniProt entry, the sequences of proteins in these tests, tags left out.
UniProt O95863: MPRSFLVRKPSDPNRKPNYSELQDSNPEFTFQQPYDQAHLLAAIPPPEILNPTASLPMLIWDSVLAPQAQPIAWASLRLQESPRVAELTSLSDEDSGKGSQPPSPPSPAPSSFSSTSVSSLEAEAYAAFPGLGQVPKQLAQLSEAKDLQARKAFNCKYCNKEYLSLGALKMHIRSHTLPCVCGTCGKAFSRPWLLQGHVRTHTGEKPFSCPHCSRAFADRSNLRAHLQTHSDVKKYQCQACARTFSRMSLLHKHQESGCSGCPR

For a further experiment, the target named is HA-Snail1 (UniProt O95863). The description is as above.

For two molecules, binding results are on record in paper PMC5347701.

Results are given in words; binding and its absence hold for the method and conditions named. In cells and extracts the contact can be indirect. Some results given as binding are weak or reduced against the parent protein; the word gives no strength. For part of these data: Sequences can lack the tags named with a protein.

B1: RND3 (protein, UniProt P61587 1-244)
chain: MKERRASQKLSSKSIMDPNQNVKCKIVVVGDSQCGKTALLHVFAKDCFPENYVPTVFENYTASFEIDTQRIELSLWDTSGSPYYDNVRPLSYPDSDAVLICFDISRPETLDSVLKKWKGEIQEFCPNTKMLLVGCKSDLRTDVSTLVELSNHRQTPVSYDQGANMAKQIGAATYIECSALQSENSVRDIFHVATLACVNKTNKNVKRNKSQRATKRISHMPSRPELSAVATDLRKDKAKSCTVM
B1: the binding entry in experiment [1] is “binds”.

B2: myc-RND3 (protein, UniProt P61587 1-244)
chain: MKERRASQKLSSKSIMDPNQNVKCKIVVVGDSQCGKTALLHVFAKDCFPENYVPTVFENYTASFEIDTQRIELSLWDTSGSPYYDNVRPLSYPDSDAVLICFDISRPETLDSVLKKWKGEIQEFCPNTKMLLVGCKSDLRTDVSTLVELSNHRQTPVSYDQGANMAKQIGAATYIECSALQSENSVRDIFHVATLACVNKTNKNVKRNKSQRATKRISHMPSRPELSAVATDLRKDKAKSCTVM
For the molecule B2, the values for the binding result with HA-HES1 and in the experiment with HA-Snail1 were “no binding” and “binds”, respectively.
